Measurements taken from PMC8281565.
Results are given in words; binding and its absence hold for the method and conditions named. In cells and extracts the contact can be indirect. Binding calls can cover weak binding; strength is not graded here.

Target: T1, Che-1/AATF (endogenous) (human (endogenous in HCT116)) (UniProt Q9NY61)
T1 sequence: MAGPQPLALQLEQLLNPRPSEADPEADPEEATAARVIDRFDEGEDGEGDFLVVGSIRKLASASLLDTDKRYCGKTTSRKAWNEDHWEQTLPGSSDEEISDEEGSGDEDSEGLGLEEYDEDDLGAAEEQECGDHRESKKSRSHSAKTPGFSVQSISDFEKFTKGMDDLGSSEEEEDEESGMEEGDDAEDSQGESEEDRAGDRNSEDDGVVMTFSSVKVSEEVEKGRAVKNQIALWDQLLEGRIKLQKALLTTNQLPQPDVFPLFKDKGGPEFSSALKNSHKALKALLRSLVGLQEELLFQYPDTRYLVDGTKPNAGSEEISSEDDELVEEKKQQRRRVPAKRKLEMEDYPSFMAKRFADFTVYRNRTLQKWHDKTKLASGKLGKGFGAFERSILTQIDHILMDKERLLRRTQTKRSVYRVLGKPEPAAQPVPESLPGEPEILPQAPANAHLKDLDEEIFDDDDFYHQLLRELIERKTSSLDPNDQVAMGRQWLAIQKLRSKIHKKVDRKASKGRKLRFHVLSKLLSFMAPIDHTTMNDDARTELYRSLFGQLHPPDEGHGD
Experiment: co-IP; nuclear extracts of HCT116 cells, endogenous proteins; IP with Che-1 antibody (Fig. 5A) or with CK2 antibody (Supplementary Figure 4A); western blot

binding: binds
Substance: Casein kinase II (CK2), endogenous (human (endogenous in HCT116)) (complex)
